Results: article PMC4541044
Results are given in words; binding and its absence hold for the method and conditions named. In cells and extracts the contact can be indirect. Here binding means that the protein was enriched with, or labelled near, the bait; the list need not be complete.

Protein sequences, listed by entry. Tags and fused reporters are not part of them.
UniProt Q99814: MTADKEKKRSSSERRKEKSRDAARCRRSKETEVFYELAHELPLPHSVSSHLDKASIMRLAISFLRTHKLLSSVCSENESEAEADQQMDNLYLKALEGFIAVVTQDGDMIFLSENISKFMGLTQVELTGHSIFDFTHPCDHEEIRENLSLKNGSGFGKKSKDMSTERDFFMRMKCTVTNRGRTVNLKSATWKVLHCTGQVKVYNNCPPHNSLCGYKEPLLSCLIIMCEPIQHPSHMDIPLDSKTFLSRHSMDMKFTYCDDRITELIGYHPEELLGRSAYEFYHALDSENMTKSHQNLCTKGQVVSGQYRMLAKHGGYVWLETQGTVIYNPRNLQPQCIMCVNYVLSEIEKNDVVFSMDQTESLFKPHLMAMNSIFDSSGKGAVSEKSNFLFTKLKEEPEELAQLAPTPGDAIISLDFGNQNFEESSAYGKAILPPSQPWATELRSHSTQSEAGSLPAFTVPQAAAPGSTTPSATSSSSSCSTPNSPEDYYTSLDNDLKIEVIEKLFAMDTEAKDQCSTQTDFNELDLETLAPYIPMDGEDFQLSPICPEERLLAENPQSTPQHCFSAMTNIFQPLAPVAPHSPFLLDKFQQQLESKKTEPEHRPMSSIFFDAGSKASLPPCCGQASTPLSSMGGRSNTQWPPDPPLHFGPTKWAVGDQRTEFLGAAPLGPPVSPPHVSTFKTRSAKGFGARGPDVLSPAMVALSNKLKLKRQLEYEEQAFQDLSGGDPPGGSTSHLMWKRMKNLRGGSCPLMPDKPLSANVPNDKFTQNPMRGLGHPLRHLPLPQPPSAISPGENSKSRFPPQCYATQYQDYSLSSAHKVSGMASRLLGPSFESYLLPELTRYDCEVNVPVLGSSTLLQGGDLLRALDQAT
UniProt Q6GQQ9: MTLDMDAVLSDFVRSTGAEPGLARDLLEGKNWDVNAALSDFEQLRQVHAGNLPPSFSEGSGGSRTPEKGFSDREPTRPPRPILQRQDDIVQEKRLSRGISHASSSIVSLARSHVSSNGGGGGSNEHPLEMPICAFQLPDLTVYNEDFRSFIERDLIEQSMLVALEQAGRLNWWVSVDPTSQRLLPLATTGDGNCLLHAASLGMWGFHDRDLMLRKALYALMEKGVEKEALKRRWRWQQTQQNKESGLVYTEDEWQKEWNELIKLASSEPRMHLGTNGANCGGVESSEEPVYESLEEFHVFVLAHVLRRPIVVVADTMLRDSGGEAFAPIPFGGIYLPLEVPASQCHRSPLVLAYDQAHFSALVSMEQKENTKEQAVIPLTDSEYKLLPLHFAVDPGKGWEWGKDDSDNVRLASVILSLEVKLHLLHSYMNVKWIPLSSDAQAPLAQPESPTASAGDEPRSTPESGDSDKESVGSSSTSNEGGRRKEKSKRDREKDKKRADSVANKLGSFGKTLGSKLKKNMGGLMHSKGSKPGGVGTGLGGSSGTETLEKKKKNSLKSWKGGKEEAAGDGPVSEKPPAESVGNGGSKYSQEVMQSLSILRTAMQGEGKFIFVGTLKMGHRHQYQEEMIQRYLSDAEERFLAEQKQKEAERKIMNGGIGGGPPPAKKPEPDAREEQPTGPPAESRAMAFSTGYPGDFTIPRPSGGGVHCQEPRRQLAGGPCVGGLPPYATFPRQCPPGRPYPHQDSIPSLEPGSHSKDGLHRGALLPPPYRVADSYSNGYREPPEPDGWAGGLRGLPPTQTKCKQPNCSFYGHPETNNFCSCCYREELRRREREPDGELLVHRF

Biological target: HIF2α (encoded by EPAS1) (human (endogenous in HeLa)) (UniProt Q99814)
Assay: affinity purification with mass spectrometry; HeLa cells, 24 h at 1% O2; detergent-free lysis buffer (50 mM Tris-HCl pH 8, 150 mM NaCl, 2 mM EDTA, 1 mM DTT); immunoprecipitation with anti-HIF2α antibody [EPAS-1 (A-5)]; triplicate; Orbitrap Velos

In the case of “Cezanne (OTUD7B), endogenous (from UniProt Q6GQQ9 1-843) (enzyme)”, the binding is reported as “binds”.
